Source: patent EP4793274A1, “SALT AND CRYSTAL FORM OF KIF18A INHIBITOR COMPOUND, PREPARATION METHOD THEREFOR AND USE THEREOF” (Hubei Bio-Pharmaceutical Industrial Technological Institute …, priority 2023, dated 2025)
Counter-ions that a name gives are not always drawn. Further values from the same series stand in other lists.

Experiment: Solubility at room temperature in water, SGF and FaSSIF (HPLC concentration, pH of filtrate, XRPD of residual solid)
Settings: listed as Crystal form A of maleate

Cc1cc(-c2cnn(-c3ccc(NS(=O)(=O)CCO)cc3N3CCC4(CC3)CC4)c2)nc(N2CCC(F)(F)CC2)n1 [crystal form A of the maleate]
pH (H2O, 2 h): 6.5
pH (H2O, 24 h): 2.7
pH (SGF, 2 h): 1.9
pH (SGF, 24 h): 1.9
